The source of these data is patent US20060276624 (published 2006).

Read-outs that look alike come from different tables or passages of the source. Plain letter strings leave the end groups untold.

A short description of the series: general procedure: hybrid (solid and solution phase) peptide synthesis; 2-CTC resin; TBTU / 6-chloro HOBT / DIEA (solution phase coupling).

EKNEQELLELDKWASLWNWF yielded a step yield of 101%. This sequence also had a step yield (both steps) of 98.9%. The “final HPLC purity” value (coupling step, AN HPLC) came to 80.0%.
